This assay has as its target T1, GRAS-1::GFP (C. elegans) (UniProt Q93654).
T1 sequence: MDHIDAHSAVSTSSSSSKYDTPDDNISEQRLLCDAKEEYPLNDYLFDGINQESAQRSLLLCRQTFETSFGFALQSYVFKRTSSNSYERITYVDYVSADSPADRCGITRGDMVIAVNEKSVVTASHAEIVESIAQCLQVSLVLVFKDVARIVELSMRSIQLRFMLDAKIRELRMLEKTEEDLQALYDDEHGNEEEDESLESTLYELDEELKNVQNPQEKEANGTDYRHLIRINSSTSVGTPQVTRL
Kind of assay: co-IP.

No constants are given. Whether binding was seen depends on the method and setting. In cells and extracts the contact can be indirect. Some binding calls cover weakened binding; strength is not graded here. Sequences can lack the tags named with a protein.

B1: SYP-3 (protein, UniProt O62238 1-224)
chain: MNFEKLVSQAVNGDRFKIFCGQLTEFTNSLAGEREAIEKGMRQIETQQLEAETSFTERIAEDRVKCAAQRESLERQLQDLTATDNKLSEQKRDWEERQEKAYDELMSYLENEDVDSAGTQFGDHFNSLIKSMNNLSHDSMNGQFNSLKNNLDELNIEKKQLEVAIADQSSTISEMIPSLRPTCGATYKERNTLRIIFHYQVAKLRSEYQKCRLQEEALKARLST
With B1, the binding entry is “binds”.
